Experiment in all cases: log2 fold change, soluble protein after heating vs DMSO (PISA); higher = thermal stabilisation; K562 lysate, 10 uM; active = over 0.2 and 3.5 SD of the protein, either way, in both replicates (recomputed)
Compound in assay [1]: NCC(=O)Nc1ccc(-n2nc(C(F)(F)F)cc2-c2ccc3c(ccc4ccccc43)c2)cc1
In short, it runs like this: (§1)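 Quantification was by TMTpro 16plex LC-MS/MS with equalised channel sums, applied to the supernatant after 21,000xg for 90 min. Samples were crude K562 extract at 1 mg/mL protein in PBS pH 7.4 with 1 mM MgCl2, treated with 10 μM compound for 30 min, heated for 3 min across 48°C-58°C, pooled and brought to 0.5% NP-40 at 4°C. Values are log-two fold changes in thermal stability relative to solvent controls, from duplicates.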

Protein sequences, listed by entry. Tags and fused reporters are not part of them. Lines headed by an entry give the natural chain unless they say otherwise; changes in a name come on top.
UniProt Q13469: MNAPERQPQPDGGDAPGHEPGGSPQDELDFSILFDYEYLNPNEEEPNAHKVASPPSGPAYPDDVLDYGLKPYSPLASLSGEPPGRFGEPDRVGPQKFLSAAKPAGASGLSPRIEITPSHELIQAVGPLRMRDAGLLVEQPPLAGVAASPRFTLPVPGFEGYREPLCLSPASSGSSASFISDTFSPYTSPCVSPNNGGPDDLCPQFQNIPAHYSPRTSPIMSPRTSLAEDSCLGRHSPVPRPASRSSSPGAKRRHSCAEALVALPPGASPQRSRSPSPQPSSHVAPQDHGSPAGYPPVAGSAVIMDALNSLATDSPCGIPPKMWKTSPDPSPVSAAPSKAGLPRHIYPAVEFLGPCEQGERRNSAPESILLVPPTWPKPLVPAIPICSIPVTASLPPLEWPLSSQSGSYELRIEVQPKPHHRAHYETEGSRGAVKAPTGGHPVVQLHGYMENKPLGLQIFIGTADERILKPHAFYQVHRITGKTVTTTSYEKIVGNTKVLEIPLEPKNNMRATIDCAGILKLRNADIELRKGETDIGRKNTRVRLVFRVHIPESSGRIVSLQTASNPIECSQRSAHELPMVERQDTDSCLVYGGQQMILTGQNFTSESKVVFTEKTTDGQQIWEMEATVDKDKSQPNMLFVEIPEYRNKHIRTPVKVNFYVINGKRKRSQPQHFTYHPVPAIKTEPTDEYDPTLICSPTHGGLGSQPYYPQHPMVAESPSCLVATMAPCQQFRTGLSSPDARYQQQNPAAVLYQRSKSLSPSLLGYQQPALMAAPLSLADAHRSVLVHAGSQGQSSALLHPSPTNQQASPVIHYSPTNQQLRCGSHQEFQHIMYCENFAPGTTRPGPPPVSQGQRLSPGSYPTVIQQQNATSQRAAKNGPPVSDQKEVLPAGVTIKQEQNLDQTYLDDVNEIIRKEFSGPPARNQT
UniProt Q9UGV2: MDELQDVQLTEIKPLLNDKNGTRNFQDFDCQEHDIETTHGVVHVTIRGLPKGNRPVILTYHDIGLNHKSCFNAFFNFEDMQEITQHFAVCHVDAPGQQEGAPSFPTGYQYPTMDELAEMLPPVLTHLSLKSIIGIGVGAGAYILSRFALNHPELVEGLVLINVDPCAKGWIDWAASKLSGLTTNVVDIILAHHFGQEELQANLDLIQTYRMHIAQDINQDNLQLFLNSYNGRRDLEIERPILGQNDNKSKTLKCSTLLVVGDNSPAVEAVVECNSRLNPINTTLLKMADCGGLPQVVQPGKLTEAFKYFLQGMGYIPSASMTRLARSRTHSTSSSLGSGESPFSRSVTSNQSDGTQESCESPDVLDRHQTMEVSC
UniProt O43181, whole entry, looked up: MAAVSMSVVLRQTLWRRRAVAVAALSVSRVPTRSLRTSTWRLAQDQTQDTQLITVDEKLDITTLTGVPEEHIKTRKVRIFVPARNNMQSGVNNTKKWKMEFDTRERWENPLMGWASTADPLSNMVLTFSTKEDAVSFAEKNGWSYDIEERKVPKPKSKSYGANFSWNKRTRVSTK
UniProt P25208: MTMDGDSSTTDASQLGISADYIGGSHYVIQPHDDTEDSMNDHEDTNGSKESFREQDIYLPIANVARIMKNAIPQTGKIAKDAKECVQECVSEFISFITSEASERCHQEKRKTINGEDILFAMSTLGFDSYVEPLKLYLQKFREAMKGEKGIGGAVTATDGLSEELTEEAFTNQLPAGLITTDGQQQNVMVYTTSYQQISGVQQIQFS
UniProt Q8N5F7: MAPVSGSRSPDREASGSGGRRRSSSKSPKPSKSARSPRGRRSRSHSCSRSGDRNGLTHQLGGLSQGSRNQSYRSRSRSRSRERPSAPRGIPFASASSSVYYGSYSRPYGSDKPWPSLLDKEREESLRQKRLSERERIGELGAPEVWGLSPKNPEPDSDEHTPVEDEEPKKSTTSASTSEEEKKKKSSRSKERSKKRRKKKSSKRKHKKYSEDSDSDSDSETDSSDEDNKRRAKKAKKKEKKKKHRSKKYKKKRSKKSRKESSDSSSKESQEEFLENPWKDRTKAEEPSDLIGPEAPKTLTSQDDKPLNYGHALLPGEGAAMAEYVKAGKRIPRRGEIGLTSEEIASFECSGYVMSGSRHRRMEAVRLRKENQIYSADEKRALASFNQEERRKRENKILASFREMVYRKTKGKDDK
UniProt Q8NHV4, whole entry, looked up: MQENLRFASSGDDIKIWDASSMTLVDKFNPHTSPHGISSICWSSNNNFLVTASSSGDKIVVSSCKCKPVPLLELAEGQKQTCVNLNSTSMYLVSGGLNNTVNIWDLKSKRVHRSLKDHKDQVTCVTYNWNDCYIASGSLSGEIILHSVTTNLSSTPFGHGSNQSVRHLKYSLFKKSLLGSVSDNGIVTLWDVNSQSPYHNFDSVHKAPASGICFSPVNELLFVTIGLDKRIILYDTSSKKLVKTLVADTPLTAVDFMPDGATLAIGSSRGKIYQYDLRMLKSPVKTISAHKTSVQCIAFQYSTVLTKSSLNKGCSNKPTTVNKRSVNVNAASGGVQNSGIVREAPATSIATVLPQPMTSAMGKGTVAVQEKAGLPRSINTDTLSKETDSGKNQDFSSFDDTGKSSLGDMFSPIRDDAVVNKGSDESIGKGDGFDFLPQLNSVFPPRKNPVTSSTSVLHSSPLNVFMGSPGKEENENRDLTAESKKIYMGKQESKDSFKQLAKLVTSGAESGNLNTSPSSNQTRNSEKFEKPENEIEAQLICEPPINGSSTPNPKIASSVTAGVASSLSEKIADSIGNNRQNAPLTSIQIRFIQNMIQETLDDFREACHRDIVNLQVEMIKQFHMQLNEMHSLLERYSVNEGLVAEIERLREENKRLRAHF
UniProt Q9NX24: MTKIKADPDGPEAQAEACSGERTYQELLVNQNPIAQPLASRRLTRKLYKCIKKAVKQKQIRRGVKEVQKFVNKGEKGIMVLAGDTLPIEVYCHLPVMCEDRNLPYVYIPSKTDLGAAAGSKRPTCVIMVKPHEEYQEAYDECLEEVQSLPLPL
UniProt P17568, whole entry, looked up: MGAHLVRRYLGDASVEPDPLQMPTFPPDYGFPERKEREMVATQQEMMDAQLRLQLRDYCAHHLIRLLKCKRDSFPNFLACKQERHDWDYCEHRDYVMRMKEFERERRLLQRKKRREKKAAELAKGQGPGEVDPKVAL
UniProt O95096: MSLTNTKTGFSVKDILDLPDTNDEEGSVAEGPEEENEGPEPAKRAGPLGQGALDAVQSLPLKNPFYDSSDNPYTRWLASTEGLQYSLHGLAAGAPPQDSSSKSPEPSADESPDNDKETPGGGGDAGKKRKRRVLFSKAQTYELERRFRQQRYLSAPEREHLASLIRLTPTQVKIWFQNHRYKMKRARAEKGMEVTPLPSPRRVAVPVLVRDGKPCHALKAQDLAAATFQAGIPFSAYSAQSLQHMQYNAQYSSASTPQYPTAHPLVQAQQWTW
UniProt O95169, whole entry, looked up: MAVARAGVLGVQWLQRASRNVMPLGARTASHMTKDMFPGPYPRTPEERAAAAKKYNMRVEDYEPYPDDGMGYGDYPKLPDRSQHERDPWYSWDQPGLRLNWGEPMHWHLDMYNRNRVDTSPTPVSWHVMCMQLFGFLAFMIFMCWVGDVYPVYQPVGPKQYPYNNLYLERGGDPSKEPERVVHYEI
UniProt Q9Y697: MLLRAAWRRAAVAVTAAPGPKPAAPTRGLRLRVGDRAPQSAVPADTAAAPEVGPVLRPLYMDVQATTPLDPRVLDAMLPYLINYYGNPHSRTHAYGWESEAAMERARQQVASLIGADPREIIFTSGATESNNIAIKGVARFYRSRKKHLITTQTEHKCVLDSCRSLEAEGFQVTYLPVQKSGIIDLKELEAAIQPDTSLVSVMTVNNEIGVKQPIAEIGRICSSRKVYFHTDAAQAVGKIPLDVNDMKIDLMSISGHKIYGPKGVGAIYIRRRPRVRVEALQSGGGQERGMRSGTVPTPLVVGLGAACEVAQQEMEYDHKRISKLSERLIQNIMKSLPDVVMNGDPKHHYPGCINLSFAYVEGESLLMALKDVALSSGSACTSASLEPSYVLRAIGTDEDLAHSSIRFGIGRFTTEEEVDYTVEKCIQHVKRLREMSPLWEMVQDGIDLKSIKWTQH
UniProt Q92692, whole entry, looked up: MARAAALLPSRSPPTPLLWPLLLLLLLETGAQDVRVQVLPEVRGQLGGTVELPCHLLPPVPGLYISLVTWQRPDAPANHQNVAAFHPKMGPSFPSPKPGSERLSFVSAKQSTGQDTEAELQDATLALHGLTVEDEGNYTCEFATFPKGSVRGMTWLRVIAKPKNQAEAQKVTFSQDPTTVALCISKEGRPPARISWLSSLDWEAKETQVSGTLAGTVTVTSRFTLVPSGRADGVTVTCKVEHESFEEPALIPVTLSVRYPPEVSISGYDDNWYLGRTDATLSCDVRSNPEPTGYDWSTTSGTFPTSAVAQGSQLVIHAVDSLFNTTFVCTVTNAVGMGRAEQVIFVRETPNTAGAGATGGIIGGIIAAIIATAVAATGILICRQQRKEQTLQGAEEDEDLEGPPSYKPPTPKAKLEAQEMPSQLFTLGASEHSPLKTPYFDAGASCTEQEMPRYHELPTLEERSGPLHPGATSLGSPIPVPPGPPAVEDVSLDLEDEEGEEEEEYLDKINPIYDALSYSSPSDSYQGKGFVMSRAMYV
UniProt Q330K2: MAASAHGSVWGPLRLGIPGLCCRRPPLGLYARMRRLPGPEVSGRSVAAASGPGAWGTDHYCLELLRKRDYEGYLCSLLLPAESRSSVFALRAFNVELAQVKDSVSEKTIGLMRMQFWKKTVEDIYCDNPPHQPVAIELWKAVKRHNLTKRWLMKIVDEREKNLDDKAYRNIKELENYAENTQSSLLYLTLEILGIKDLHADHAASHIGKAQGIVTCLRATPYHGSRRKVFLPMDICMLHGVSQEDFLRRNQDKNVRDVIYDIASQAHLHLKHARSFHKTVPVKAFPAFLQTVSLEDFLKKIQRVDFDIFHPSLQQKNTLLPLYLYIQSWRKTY

Compound in a further assay: O=C(CCCCCCC(=O)Nc1ccccc1)NO [vorinostat]
In short, it runs like this: as §1

Compound in a further assay: O=C(O)c1ccc2c(c1)nc(Nc1cccc(Cl)c1)c1ccncc12 [silmitasertib]
In short, it runs like this:
as §1

Compound in assay [2]: O=C1NC(=O)C(c2cnc3ccccn23)=C1c1cn2c3c(cc(F)cc13)CN(C(=O)N1CCCCC1)CC2
In short, it runs like this:
as §1

Compound in another assay: c1cn2cc(-c3ccc4cn[nH]c4c3)nc(Nc3ccc(N4CCOCC4)cc3)c2n1 [entospletinib]
The method in brief:
as §1

The list shows a part of the results.

For the target NFATC2 (UniProt Q13469), the log2 fold change in assay [1] was inactive: 0.02; in the assay with vorinostat it was active: -0.411; in the assay with silmitasertib, inactive: 0.021; in assay [2] it was inactive: 0.044; with entospletinib, inactive: -0.062.
The matching figures for NDRG3 (UniProt Q9UGV2): inactive: 0.044, inactive: -0.004, inactive: 0.017, inactive: 0.012 and inactive: 0.009.
The matching figures for NDUFS4 (UniProt O43181): inactive: 0.005, inactive: 0.197, inactive: 0.007, inactive: -0.03 and inactive: -0.013.
The corresponding values for NFYB (UniProt P25208) are inactive: 0.156, inactive: 0.065, inactive: 0.012, inactive: 0.019 and inactive: -0.001.
With NKAP (UniProt Q8N5F7), the log2 fold change was inactive: 0.121 in assay [1]; inactive: 0.058 with vorinostat; inactive: -0.02 in the assay with silmitasertib; inactive: -0.006 in assay [2]; inactive: -0.02 with entospletinib.
Take NEDD1 isoform 3 (UniProt Q8NHV4): the log2 fold change was inactive: 0.003 in assay [1]; inactive: -0.074 with vorinostat; inactive: -0.032 with silmitasertib; inactive: -0.026 in assay [2]; inactive: 0.026 in the assay with entospletinib.
The matching figures for NHP2 (UniProt Q9NX24): inactive: 0.029, inactive: 0.105, inactive: 0, inactive: -0.046 and inactive: -0.005.
The corresponding values for NDUFB7 (UniProt P17568) are inactive: -0.008, inactive: 0.181, inactive: -0.042, inactive: 0.042 and inactive: -0.028.
As to NKX2-2 (UniProt O95096), the log2 fold change in assay [1] was inactive: 0.199; with vorinostat, inactive: 0.185; with silmitasertib it was inactive: -0.208; in assay [2] it was inactive: 0.191; with entospletinib it was inactive: -0.063.
Turning to NDUFB8 (UniProt O95169), the log2 fold change in assay [1] is inactive: -0.066; with vorinostat, inactive: 0.172; with silmitasertib, inactive: -0.025; in assay [2], inactive: 0.018; with entospletinib, inactive: -0.094.
Consider NFS1 (UniProt Q9Y697), for which the log2 fold change in assay [1] is inactive: 0.022; with vorinostat it was inactive: 0.001; with silmitasertib, inactive: 0.007; in assay [2], inactive: -0.018; in the assay with entospletinib, inactive: -0.02.
The corresponding values for NECTIN2 (UniProt Q92692) are inactive: -0.007, inactive: 0.126, inactive: 0.013, inactive: -0.031 and inactive: 0.019.
As for NDUFAF6 (UniProt Q330K2), the log2 fold change in the assay with vorinostat is inactive: -0.053; with silmitasertib, inactive: 0.102; in assay [2] it was inactive: -0.09; with entospletinib, inactive: -0.067.

(Values after the supplement of paper PMC10849652.)
